These results are taken from paper PMC4032575.

Chains of the proteins cited; added tags and fusions are not shown. Lines headed by an entry give the natural chain unless they say otherwise; changes in a name come on top. A line that says so, or that is headed by a name, gives the form on record, which may keep a tag or linker.
UniProt Q23985: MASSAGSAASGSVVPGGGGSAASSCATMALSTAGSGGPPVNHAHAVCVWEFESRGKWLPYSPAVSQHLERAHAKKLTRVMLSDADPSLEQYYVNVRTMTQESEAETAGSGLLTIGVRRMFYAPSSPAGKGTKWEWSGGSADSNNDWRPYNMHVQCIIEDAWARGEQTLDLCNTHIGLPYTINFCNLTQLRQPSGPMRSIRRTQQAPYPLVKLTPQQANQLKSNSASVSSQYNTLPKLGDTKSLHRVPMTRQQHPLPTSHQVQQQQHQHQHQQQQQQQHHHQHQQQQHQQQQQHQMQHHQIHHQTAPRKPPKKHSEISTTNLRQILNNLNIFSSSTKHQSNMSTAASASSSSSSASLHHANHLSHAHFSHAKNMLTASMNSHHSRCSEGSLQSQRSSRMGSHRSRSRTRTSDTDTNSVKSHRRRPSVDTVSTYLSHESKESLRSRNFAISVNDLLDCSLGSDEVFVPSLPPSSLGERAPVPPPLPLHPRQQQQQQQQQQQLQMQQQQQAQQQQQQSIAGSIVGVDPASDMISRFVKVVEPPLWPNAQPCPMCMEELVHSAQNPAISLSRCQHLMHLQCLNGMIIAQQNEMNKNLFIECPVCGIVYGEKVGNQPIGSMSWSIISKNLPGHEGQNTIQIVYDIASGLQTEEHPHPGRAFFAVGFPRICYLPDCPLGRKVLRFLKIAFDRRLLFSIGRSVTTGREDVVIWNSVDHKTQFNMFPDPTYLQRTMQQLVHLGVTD
Notch R2027A (N^R2027A) (P07207, form named): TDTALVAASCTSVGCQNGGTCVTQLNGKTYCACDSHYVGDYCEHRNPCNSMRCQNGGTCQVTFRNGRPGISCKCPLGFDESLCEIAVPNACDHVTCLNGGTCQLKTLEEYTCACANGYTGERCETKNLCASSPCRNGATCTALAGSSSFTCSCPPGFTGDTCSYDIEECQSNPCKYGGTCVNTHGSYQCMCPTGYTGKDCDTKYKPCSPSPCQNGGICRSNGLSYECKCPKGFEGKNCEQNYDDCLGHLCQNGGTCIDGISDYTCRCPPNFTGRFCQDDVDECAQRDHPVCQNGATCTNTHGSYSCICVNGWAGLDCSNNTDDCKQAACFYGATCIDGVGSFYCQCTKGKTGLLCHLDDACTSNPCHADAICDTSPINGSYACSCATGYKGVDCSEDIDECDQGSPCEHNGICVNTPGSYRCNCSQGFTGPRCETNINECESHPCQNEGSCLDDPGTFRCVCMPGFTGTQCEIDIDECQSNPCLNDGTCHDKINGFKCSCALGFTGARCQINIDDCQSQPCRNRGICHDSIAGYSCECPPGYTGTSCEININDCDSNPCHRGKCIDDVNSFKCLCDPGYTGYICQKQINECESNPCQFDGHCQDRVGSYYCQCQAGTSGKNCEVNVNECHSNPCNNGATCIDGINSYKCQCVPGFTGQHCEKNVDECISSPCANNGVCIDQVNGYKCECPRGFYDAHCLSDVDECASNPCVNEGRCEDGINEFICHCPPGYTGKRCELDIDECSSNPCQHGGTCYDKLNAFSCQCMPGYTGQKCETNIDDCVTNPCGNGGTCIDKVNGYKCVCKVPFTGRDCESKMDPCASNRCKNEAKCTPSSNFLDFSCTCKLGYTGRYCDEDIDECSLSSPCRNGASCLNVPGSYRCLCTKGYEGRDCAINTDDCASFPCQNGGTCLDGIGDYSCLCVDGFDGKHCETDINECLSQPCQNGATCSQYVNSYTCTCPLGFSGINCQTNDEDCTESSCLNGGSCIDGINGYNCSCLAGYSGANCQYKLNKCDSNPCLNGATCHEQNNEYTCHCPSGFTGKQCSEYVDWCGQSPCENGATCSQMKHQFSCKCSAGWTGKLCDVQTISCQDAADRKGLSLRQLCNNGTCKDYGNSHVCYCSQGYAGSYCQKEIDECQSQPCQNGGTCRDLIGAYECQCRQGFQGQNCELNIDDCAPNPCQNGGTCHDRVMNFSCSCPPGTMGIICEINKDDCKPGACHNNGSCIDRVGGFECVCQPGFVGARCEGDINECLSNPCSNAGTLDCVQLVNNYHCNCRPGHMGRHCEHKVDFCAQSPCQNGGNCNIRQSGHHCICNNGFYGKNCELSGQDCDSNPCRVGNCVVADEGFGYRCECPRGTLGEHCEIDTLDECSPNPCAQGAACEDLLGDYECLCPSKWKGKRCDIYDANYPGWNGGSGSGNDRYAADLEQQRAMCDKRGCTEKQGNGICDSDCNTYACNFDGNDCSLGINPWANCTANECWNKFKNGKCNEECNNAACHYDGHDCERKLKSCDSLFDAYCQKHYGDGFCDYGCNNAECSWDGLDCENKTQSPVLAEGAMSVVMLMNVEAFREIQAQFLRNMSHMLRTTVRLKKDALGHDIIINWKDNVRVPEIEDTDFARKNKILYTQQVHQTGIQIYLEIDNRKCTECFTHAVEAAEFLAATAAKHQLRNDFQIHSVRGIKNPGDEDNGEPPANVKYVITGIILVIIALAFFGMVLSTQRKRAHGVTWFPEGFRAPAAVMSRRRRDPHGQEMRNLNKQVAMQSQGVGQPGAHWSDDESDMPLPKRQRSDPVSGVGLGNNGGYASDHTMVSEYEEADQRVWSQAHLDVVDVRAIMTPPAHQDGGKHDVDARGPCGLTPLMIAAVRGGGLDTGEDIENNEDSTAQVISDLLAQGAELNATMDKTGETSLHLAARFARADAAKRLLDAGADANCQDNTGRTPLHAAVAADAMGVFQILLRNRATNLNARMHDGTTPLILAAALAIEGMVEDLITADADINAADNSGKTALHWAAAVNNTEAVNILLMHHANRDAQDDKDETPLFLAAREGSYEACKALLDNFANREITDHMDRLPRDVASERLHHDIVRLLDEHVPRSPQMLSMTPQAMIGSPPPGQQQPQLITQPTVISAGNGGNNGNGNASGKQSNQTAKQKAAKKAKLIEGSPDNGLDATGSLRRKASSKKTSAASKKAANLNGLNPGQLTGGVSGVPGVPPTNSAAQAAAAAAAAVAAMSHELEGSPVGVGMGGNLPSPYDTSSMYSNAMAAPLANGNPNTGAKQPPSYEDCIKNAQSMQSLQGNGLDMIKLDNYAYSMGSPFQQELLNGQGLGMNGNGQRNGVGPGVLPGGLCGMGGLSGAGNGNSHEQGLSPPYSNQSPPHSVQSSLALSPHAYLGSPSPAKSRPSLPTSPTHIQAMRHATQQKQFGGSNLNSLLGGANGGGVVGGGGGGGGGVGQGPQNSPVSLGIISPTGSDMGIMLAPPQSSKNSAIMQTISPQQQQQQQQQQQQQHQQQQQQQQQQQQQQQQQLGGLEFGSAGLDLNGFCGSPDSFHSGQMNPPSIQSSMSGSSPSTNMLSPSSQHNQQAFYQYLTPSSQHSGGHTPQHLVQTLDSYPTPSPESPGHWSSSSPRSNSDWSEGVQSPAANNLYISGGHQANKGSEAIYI
Notch D505A (N^D505A) (P07207, form named): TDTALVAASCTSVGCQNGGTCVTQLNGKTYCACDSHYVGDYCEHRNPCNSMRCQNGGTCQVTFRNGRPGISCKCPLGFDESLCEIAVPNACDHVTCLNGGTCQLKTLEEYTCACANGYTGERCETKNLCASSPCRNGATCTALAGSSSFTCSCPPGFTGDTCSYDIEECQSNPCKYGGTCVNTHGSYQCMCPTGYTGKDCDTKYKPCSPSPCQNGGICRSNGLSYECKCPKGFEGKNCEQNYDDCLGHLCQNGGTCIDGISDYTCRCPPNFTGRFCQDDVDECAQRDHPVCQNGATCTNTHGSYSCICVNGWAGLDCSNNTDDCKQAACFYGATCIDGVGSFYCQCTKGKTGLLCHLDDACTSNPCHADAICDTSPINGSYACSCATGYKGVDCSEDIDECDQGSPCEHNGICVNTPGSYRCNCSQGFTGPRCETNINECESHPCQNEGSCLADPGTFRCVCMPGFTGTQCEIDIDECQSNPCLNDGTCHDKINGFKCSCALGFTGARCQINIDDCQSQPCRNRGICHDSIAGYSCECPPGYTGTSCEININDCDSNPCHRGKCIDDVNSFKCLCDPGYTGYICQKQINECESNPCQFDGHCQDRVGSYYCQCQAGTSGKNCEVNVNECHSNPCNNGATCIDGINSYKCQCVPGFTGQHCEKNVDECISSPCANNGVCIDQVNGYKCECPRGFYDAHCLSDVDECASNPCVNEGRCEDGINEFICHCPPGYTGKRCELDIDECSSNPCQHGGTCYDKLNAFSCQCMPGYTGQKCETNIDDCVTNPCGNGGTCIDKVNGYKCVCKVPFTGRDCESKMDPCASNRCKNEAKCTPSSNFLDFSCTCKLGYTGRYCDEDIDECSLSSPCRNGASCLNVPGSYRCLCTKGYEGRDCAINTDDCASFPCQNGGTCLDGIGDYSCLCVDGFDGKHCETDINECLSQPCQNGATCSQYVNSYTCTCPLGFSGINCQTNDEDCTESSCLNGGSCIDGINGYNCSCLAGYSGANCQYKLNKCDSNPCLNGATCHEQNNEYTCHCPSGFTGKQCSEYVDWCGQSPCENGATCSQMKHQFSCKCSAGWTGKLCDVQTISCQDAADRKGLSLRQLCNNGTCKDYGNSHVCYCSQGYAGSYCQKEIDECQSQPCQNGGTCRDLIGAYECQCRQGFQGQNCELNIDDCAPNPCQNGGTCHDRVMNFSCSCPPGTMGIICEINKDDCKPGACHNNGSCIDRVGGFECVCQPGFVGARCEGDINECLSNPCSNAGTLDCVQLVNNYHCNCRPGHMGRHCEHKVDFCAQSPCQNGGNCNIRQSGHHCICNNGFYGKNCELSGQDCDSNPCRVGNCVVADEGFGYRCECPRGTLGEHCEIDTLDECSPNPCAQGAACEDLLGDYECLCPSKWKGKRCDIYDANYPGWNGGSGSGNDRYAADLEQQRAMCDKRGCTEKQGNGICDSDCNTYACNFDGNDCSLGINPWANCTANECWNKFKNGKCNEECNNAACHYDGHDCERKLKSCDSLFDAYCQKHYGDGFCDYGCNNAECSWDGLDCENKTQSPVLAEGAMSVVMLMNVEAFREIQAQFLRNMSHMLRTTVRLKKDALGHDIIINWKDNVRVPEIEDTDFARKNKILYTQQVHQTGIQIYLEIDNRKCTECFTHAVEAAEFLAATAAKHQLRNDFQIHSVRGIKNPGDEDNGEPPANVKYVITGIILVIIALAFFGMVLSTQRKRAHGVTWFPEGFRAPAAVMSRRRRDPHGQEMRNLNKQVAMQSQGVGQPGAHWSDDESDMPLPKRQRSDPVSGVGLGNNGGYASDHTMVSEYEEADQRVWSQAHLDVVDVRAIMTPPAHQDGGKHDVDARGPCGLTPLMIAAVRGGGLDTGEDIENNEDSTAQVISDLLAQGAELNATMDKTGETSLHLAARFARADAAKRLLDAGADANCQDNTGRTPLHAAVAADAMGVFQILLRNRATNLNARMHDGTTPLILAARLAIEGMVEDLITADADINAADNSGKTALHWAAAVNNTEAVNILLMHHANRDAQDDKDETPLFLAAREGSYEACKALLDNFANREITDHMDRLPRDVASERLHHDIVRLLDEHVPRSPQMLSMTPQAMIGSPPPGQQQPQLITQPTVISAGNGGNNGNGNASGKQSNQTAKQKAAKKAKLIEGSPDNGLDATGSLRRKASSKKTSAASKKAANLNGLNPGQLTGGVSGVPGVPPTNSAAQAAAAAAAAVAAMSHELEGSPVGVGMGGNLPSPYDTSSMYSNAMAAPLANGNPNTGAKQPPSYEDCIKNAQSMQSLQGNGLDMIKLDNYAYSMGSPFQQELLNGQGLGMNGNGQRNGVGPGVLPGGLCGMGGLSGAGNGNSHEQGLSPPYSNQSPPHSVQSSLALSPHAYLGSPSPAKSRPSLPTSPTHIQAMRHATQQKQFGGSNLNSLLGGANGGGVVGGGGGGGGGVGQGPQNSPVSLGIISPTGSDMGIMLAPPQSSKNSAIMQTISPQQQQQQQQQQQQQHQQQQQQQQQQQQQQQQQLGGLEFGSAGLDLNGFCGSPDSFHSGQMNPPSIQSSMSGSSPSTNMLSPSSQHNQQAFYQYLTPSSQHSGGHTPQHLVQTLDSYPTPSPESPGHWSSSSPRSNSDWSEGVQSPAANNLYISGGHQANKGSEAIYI

In this test the target is Venus-Deltex (Venus-Dx) (Drosophila) (UniProt Q23985). Kind of test: co-IP; S2 cells co-transfected with pMT-N constructs and pMT-Venus-Dx; lysate in 50 mM Tris-HCl pH 8.0, 150 mM NaCl, 1% Triton X-100, 1 mM CaCl2; Venus-Dx captured on GFP-TRAP agarose 1 hr at 4°C, washed 4 times; Western blot. Background: In western blotting, separated proteins are transferred to a membrane and probed.

No constants are given. Whether binding was seen depends on the method and setting. Binding seen in cells or lysates may run through a third protein. Some binding calls cover weakened binding; strength is not graded here.

“Notch R2027A (N^R2027A) (from UniProt P07207 53-2703) (receptor)”: the binding result is “no binding”. The value for “Notch D505A (N^D505A) (from UniProt P07207 53-2703) (receptor)” was “binds”.
